Among all 330,000 compounds or so, about 7,700 (2.3%) were called active. Inconclusive means that the source gave no clear call. Such entries were picked first, then a sample of the others. The call rests on the fitted dose curve; in most records, active means well fitted inhibition curve with a large enough effect; inconclusive means small, poorly fitted or top-dose-only effect, or effect the other way; inactive means flat fitted curve, though single readings scatter. Potencies beside an inconclusive call are fits to weak or partial responses and may not hold up.
Test: qHTS screen for small molecules that inhibit ELG1-dependent DNA repair in human embryonic kidney (HEK293T) cells expressing luciferase-tagged ELG1; further: nearly all actives have a fitted effect of over 55% in size
Conditions: HEK293T ELG1-luciferase reporter, luminescence, 16 h, DNA damage induced by 5-fluorouridine; activity change, negative = inhibition: at 46.1 µM (top of the series)
Method in brief: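 Step one: seed 2,000 cells per well. Step two: pin-transfer compound or DMSO alongside 5-fluorouridine. Step three: incubate 16 hr, 37 °C, 5% CO2. Step four: add ONE-Glo, wait 30 min, read luminescence.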
In the case of `COc1cc(/C=C\C(=O)Nc2cc(=O)n(C)c(=O)n2C)cc(OC)c1OC`, the Potency is reported as inconclusive: 18.3 µM [activator, single point].
For `CCc1ccc(NC(=O)N(C2CCCCC2)C(C)c2cccnc2)cc1` (centres undefined), the Potency was inconclusive: 20.6 µM [activator, single point].
In the case of `CS(=O)(=O)c1ccc(C(=O)OCC(=O)NC(=O)C2COc3ccccc3O2)cc1[N+](=O)[O-]` (centres undefined), the Potency is reported as inconclusive: 5.17 µM [inhibitor, single point].
For `O=C(Nc1ccc2sccc2c1)c1ccc(Cl)s1`, the Potency was inconclusive: 1.3 µM [activator, full curve].
With `O=C(NCCc1c[nH]c2ccccc12)c1ccc2c(c1)OCO2` the Potency was inconclusive: 9.2 µM [activator, partial curve].
With `O=C(C1CCCCC1)N(CCN1CCCC1)c1nc2ccccc2s1` the Potency was inconclusive: 8.2 µM [activator, partial curve].
For `CCN1C(=O)c2ccccc2S(=O)c2ccc(C(=O)N3CCOCC3)cc21` (centres undefined), the Potency was inconclusive: 3.66 µM [activator, full curve, poor fit].
For `COc1ccc(C(C(=O)NCC2CCCO2)N(Cc2cccs2)C(=O)c2snc(C(N)=O)c2N)cc1OC` (centres undefined), the Potency was inconclusive: 25.9 µM [inhibitor, single point].
In the case of `O=C(O)C1CCC(c2ccc(-c3ccccc3)cc2)CC1` (centres undefined), the Potency is reported as inconclusive: 7.3 µM [activator, partial curve].
For `c1ccc(-c2ccc(SCc3cccnc3)nn2)nc1`, the Potency was inconclusive: 2.91 µM [activator, partial curve].
For `CC(C)C(NS(=O)(=O)c1cccc2nsnc12)C(=O)N1CCCCC1` (centres undefined), the Potency was “inactive”.
In the case of `CCc1ccc(NC(=O)C2CCN(S(=O)(=O)c3cccs3)CC2)cc1`, the Potency is reported as inconclusive: 29.1 µM [inhibitor, single point].
For `O=C1C2C3C=CC(C3)C2C(=O)N1c1ccc(Cc2ccncc2)cc1` (centres undefined), the Potency was “inactive”.
In the case of `Cc1cc(C)c2c(N)c(C(=O)Nc3ccccc3Br)sc2n1`, the Potency is reported as inconclusive: 8.2 µM [activator, partial curve].
With `O=C(NCc1cccc(Cl)c1)c1ccc(CS(=O)Cc2ccccc2Cl)o1` (centres undefined) the Potency was inconclusive: 25.9 µM [inhibitor, single point].
With `COc1ccc(OC)c(NC(=O)c2c(NC(=O)CCC(=O)O)sc3c2CCCCC3)c1` the Potency was “inactive”.
With `Cc1cc(NC(=O)CSc2nc(-c3cccs3)cc(C(F)(F)F)n2)no1` the Potency was “inactive”.
For `CCOC(=O)N(C)OC(=O)Nc1ccc(Cl)c(Cl)c1`, the Potency was “inactive”.
In the case of `Cc1cc2ccccn2c1C(=O)Nc1ccc(Cl)cc1`, the Potency is reported as inconclusive: 23.1 µM [activator, partial curve].
For `C[C@@]12C(=O)Nc3cc(F)ccc3C(=O)N1[C@H]1c3ccccc3OC[C@@H]1[C@@H]2c1ccccc1`, the Potency was inconclusive: 2.82 µM [inhibitor, partial curve, poor fit].
With `O=C(CNC(=O)CNC(=O)c1ccc(Cl)cc1Cl)NCc1cccc(Cl)c1` the Potency was “inactive”.
In the case of `CC(=O)N/C(=C\c1ccccc1)C(=O)OCC(=O)N(C)C1CCS(=O)(=O)C1` (centres undefined), the Potency is reported as “inactive”.
For `CS(=O)(=O)Nc1ccccc1C(=O)Nc1ccc2c(c1)OCCO2`, the Potency was inconclusive: 20.6 µM [activator, single point].
With `O=C(Cn1nnc(-c2ccc(Cl)cc2)n1)NC1CCS(=O)(=O)C1` (centres undefined) the Potency was inconclusive: 5.62 µM [activator, partial curve, poor fit].
In the case of `Cc1ccc(NC(=O)CCc2c(C)nn(-c3ccc(N4CCCCC4)nn3)c2C)cc1F`, the Potency is reported as inconclusive: 4.61 µM [activator, single point].
With `CCOc1ccc(-c2cn[nH]c2N)cc1` the Potency was “inactive”.
With `CC(C)CC(=O)Nc1ccc(C(=O)COC(=O)C2CC(=O)N(Cc3ccccc3)C2)cc1` (centres undefined) the Potency was “inactive”.
In the case of `O=c1[nH]c(-c2ccc(-c3cccc(Cl)c3)o2)nc2ccccc12`, the Potency is reported as inconclusive: 1.83 µM [activator, partial curve].
In the case of `COc1cc2ccccc2cc1C(=O)OCC(=O)N(C)c1c(N)n(Cc2ccccc2)c(=O)[nH]c1=O`, the Potency is reported as inconclusive: 1.16 µM [inhibitor, single point].
With `CCOC(=O)N1CCN(C(=O)CNC(=O)c2nn(-c3ccc(OC)cc3OC)c(=O)c3ccccc23)CC1` the Potency was inconclusive: 20.6 µM [activator, partial curve].
For `CC(C)(Oc1ccc(CCNC(=O)c2ccc(-c3ccc(Cl)cc3)o2)cc1)C(=O)O`, the Potency was “inactive”.
With `O=C(Nc1cccc(-c2nnc(-c3ccccc3)o2)c1)C1CCCO1` (centres undefined) the Potency was inconclusive: 2.82 µM [activator, partial curve, poor fit].
For `O=C(Cc1cccs1)NNC(=S)NC(=O)c1ccco1`, the Potency was inconclusive: 7.3 µM [inhibitor, partial curve, poor fit].
In the case of `Cn1cc(Br)c(C(=O)NC2CCCCCC2)n1`, the Potency is reported as inconclusive: 29.1 µM [activator, single point].
With `COc1ccc(CNc2nc(NCc3ccc(OC)cc3)n(C(C)=O)n2)cc1` the Potency was “inactive”.
For `CCN1CCN(Cc2ccc(NC(=O)Nc3ccccc3OC)cc2)CC1`, the Potency was inconclusive: 18.4 µM [activator, partial curve].
In the case of `Cc1occc1C(=O)N/N=C/c1ccc(Cl)c([N+](=O)[O-])c1`, the Potency is reported as inconclusive: 18.4 µM [activator, single point].
For `CC(C)(C)S(=O)(=O)/C(C#N)=N/Nc1ccc(C#N)cc1`, the Potency was active: 18.3 µM.
In the case of `S=c1[nH]nc(-c2ccccn2)n1/N=C/c1c(Cl)cccc1Cl`, the Potency is reported as “inactive”.
With `CCOc1ccc(OCC)c(NC(=O)CC2Oc3ccc(C)cc3NC2=O)c1` (centres undefined) the Potency was inconclusive: 16.4 µM [inhibitor, partial curve].
With `Cc1cc(/C=C2\SC(=S)NC2=O)c(C)n1C1CC1` the Potency was inconclusive: 18.4 µM [activator, single point].
In the case of `CC(C)(C)NC[C@@H](O)COc1cccc2c1CCCC2=O`, the Potency is reported as “inactive”.
In the case of `CCc1cc2c(SCC(=O)c3ccccc3)ncnc2s1`, the Potency is reported as inconclusive: 20.6 µM [activator, partial curve].
For `CCCc1cc(=O)n2nc(N3CCC(C(=O)NCc4ccc(C)o4)CC3)sc2n1`, the Potency was inconclusive: 20.6 µM [activator, partial curve, poor fit].
With `S=C(NCCc1cnc[nH]1)NC1CCCC1` the Potency was “inactive”.
For `COc1ccc(-c2csc(NC(=O)CCN3C(=O)C4CC=CCC4C3=O)n2)cc1OC` (centres undefined), the Potency was inconclusive: 16.4 µM [inhibitor, single point].
With `COc1cccc(NC(=O)Nc2nnc(CC(=O)Nc3ccccc3)s2)c1` the Potency was inconclusive: 5.8 µM [inhibitor, full curve, poor fit].
With `COc1ccc(-c2csc(NC(=O)CC(C)C)n2)cc1` the Potency was inconclusive: 4.11 µM [activator, partial curve].
With `CCOC(=O)c1c(C(=O)OCC)c(C)n(Cc2cc(OC)c(OC)c(OC)c2)c1C` the Potency was inconclusive: 29.1 µM [inhibitor, partial curve, poor fit].
In the case of `C=CCN1C(=O)/C(=C\C(C)=C\c2ccccc2)SC1=S`, the Potency is reported as inconclusive: 2.24 µM [activator, full curve].
In the case of `COCCOC(=O)C1=C(C)NC(SCC(=O)NC(C)(C)C)=C(C#N)C1c1ccco1` (centres undefined), the Potency is reported as inconclusive: 16.4 µM [inhibitor, single point].
In the case of `O=C(CNC(=O)c1ccccc1)OC1CCCCC1`, the Potency is reported as inconclusive: 16.4 µM [activator, partial curve].
In the case of `COc1ccc2c(c1)c(=O)oc1cc(O)ccc12`, the Potency is reported as “inactive”.
In the case of `COC(=O)c1sc(N2C(=O)c3oc4ccccc4c(=O)c3C2c2cccc(O)c2)nc1C` (centres undefined), the Potency is reported as inconclusive: 4.11 µM [inhibitor, partial curve].
For `CCOC(=O)c1c(NC(=O)c2cccnc2)sc(C(C)=O)c1C`, the Potency was “inactive”.
With `C=CCN1C(=O)CSc2ccc(C(=O)NC3CCCCC3)cc21` the Potency was “inactive”.
In the case of `CCCc1nnc(NC(=O)C23CC4CC(CC(C4)C2)C3)s1`, the Potency is reported as inconclusive: 6.51 µM [activator, single point].
With `CSc1cccc(NS(=O)(=O)c2cc(Br)cnc2N)c1` the Potency was “inactive”.
With `CCCCN(CC)CCCNC(=O)c1cn(CC(C)C)c(=O)c2c1c1ccccc1n2C` the Potency was “inactive”.
For `O=C(CN1CCN(c2ccc(O)cc2)CC1)Nc1ccc(-c2ccccc2)cc1`, the Potency was inconclusive: 32.6 µM [inhibitor, partial curve, poor fit].
For `O=C(Nc1ccccc1)C1=C[C@H](c2csc3ccccc23)C[C@H](OCCCCO)O1`, the Potency was inconclusive: 20.6 µM [inhibitor, single point].
With `COc1ccc(-c2cn(CCCOCc3ccccc3)nn2)cc1` the activity change, negative = inhibition was inconclusive: 38% [activator].
In the case of `CCCC(NC(=O)CCl)c1ccccc1` (centres undefined), the Potency is reported as inconclusive: 2.91 µM [inhibitor, partial curve].
For `CC(=O)N1c2ccc(S(=O)(=O)N3CCC(C(=O)N4CCN(c5cccc(C(F)(F)F)c5)CC4)CC3)cc2CC1C` (centres undefined), the Potency was inconclusive: 20.6 µM [inhibitor, single point].
For `CCOC(=O)c1[nH]c2ccc(OC)cc2c1C`, the Potency was inconclusive: 23.1 µM [activator, partial curve].
With `O=C(O)c1c2c(nc3ccccc13)CCCCC2` the Potency was inconclusive: 18.4 µM [activator, partial curve, poor fit].
For `CN1CCC(N(C)S(=O)(=O)c2ccc(NC(=O)COc3ccc(Br)cc3Cl)cc2)CC1`, the Potency was “inactive”.
With `CCn1c(CCC(=O)Nc2nc3c(s2)CCCC3)nc2cc(S(=O)(=O)N(C)C)ccc21` the Potency was inconclusive: 18.4 µM [inhibitor, single point].
With `Fc1ccccc1CNc1nc(-c2cccnc2)nc2ccccc12` the Potency was inconclusive: 10.3 µM [inhibitor, partial curve].
On the % scale 0 is the no-effect control and ±100 the full control effect; potency means the concentration at half of the fitted maximal effect.
